Some of the results follow. Further columns of the screen follow, without active or inactive calls. Most of these compounds were active or inconclusive in the main read-out, so they are no random draw. Words in brackets tell the shape of the fitted curve; partial curves, single points and poor fits give uncertain potencies.
Assay: qHTS Assay for Lipid Storage Modulators in Drosophila S3 Cells;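 for cell number change: cells counted by Cell Tracker Red CMTPX staining in the red channel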
Settings: BODIPY lipid droplet fluorescence, 18-24 h; for cell number change: measured here: cell count max response, cells fed with added oleic acid
How it was run: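 Drosophila S3 cells got compounds at several concentrations plus oleic acid (400 uM solution). Laser-scanning cytometry with 488 nm excitation read lipid droplets at 500-530 nm and cells at 575-640 nm. Percent activity was relative to 20 uM Triacsin C.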

[1] = measured here: cell number channel AC50, cells fed with added oleic acid
[2] = measured here: lipid fluorescence (Fed channel) AC50, cells fed with added oleic acid

Row | Structure (SMILES) | cell number change [%] | AC50 [1] | AC50 [2]
1 | C=CC(=O)NC(C)(C)CCN1CCOCC1 | -46.5 | 29.1 µM [falling, single point] | 29.1 µM [falling, single point]
2 | COc1ccc(CN2CCN(CCc3ccccc3)C(CCO)C2)cc1Cn1cncn1 (configuration not stated) | 18.9 | – | 0.291 µM [rising, full curve, poor fit]
3 | O=C(Nc1cccc2ccccc12)N1N=CCC1c1ccccc1 (configuration not stated) | 9.78 | – | 29.1 µM [rising, single point]
4 | CCOC(=O)N/N=C/c1cc(C)n(-c2cccc3ccccc23)c1C | -26.7 | 0.00461 µM [rising, full curve, poor fit] | –
5 | Cc1ccc(NC(=O)CC(=O)c2ccccc2)cc1C | -3.17 | – | 29.1 µM [rising, single point]
6 | CCOC(=O)C1=C(COC(=O)COc2ccc(OCC)cc2)NC(=O)NC1C (configuration not stated) | – | – | 5.17 µM [rising, single point]
7 | CCCN1CCC(NC(=O)Cc2ccccc2C)CC1 | 6.08 | – | 6.51 µM [falling, single point]
8 | COc1ccc(S(=O)(=O)N2CCOCC2)cc1NC(=O)CCOc1ccc(C(C)(C)C)cc1 | 8.43 | – | –
9 | COc1ccc(-c2cc(C(=O)NCCN3CCOCC3)c3ccccc3n2)c(OC)c1 | – | 0.58 µM [falling, partial curve] | –
10 | Cc1nn(Cc2cccc(C(N)=O)c2)c(C)c1Br | 25 | – | 0.461 µM [rising, full curve, poor fit]
11 | CN(CC(=O)NCc1ccccc1F)S(=O)(=O)c1ccc(Cl)cc1 | 43.2 | 20.6 µM [rising, single point] | –
12 | O=C(NCc1ccc(Cl)cc1)C(=O)c1cn(CC(=O)N2CCOCC2)c2ccccc12 | -3.54 | – | –
13 | O=C(Cn1c(COc2ccccc2)nc2ccccc21)Nc1cc(Cl)cc(Cl)c1 | -15.5 | – | 14.6 µM [falling, partial curve, poor fit]
14 | C=CCn1c(SC(C)C(=O)NC2(C#N)CCCCC2)nnc1-c1ccc(OC)cc1 (configuration not stated) | – | – | 5.17 µM [falling, partial curve]
15 | CCCOc1cccc(C(=O)NC(=S)Nc2cccc(C(F)(F)F)c2)c1 | – | – | 6.51 µM [falling, single point]
16 | COc1cccc(NC(=O)c2ccc(-n3cnnn3)cc2)c1 | 5.13 | – | –
17 | Cc1ccc(C)c(S(=O)(=O)Nc2ccc3oc(C)c(C(=O)O)c3c2)c1 | 15 | – | 4.61 µM [rising, partial curve]
18 | CC(O)CNc1ccc(-c2nn(C)c(=O)c3ccccc23)cc1[N+](=O)[O-] (configuration not stated) | 6.62 | 4.61 µM [falling, single point] | –
19 | COC(=O)c1ccc(OC(=O)c2cccnc2SC)cc1 | 6.3 | – | –
20 | Cc1cc(C)c(NC(=O)CNC(=O)c2cc(C3CC3)nn2-c2ccccc2)c(C)c1 | -5.35 | – | 6.51 µM [falling, single point]
21 | Cc1ccc(C(=O)N2CCN(c3ccc(NC(=O)Cc4ccccc4)cc3)CC2)cc1 | 50.1 | 29.1 µM [rising, single point] | 29.1 µM [rising, single point]
22 | Cc1cc(C)nc(NC(=O)c2c(-c3ccccc3Cl)noc2C)c1 | 18.6 | – | 0.0731 µM [rising, full curve, poor fit]

Row | Structure (SMILES) | cell number change [%] | AC50 [1] | AC50 [2]
23 | COc1cc(/C=C/C(=O)OCC(=O)NC2CCS(=O)(=O)C2)ccc1O (configuration not stated) | 3.81 | – | –
24 | Cc1ccccc1OC1CCN(C(=O)c2cc(COc3ccccc3)on2)CC1 | -25.5 | – | 29.1 µM [falling, single point]
25 | CCCCn1c(N)c(N(CC(C)C)C(=O)CSc2nnc(-c3ccc(Cl)cc3)o2)c(=O)[nH]c1=O | – | – | 29.1 µM [rising, single point]
26 | O=C(Cn1c(O)c(/C=C2\C=Nc3ccccc32)sc1=O)N1CCOCC1 | 17.2 | 0.0731 µM [falling, full curve, poor fit] | 11.6 µM [rising, partial curve, poor fit]
27 | Cc1csc(SCC(=O)Nc2c(C)n(C)n(-c3ccccc3)c2=O)n1 | 4.88 | – | 9.2 µM [rising, partial curve, poor fit]
28 | CN(CC(=O)Nc1ccc(F)cc1)C(=O)COC(=O)CSc1ccc(F)cc1 | -19 | – | 2.31 µM [falling, full curve, poor fit]
29 | Cc1nn(-c2nnc(NC3CCCCC3)nn2)c(C)c1Br | -74.7 | 16.4 µM [falling, partial curve] | 18.4 µM [falling, partial curve]
30 | COc1ccc(CNS(=O)(=O)c2ccc3c(c2)N(C)CCO3)cc1 | – | – | 4.11 µM [rising, single point]
31 | CS(=O)(=O)Nc1cccc(C2=NN(S(C)(=O)=O)C(c3ccc4c(c3)OCO4)C2)c1 (configuration not stated) | 27 | – | 4.11 µM [rising, partial curve]
32 | COCCNc1nnc(SCC(=O)NC(=O)c2ccc(Cl)cc2)s1 | – | – | 0.58 µM [rising, full curve, poor fit]
33 | COc1ccc(OC)c(NC(=O)c2sc3ncnc(N4CCN(c5ccccn5)CC4)c3c2C)c1 | -7.26 | – | –
34 | CCOC(=O)c1[nH]c(C)c(C(=O)NC(C)CC)c1C (configuration not stated) | 10.1 | – | –
35 | Cc1ccc(NC(=O)C(C)Sc2n[nH]c(CNc3ccccc3)n2)cc1 (configuration not stated) | 11.8 | – | –
36 | Cc1cc(C)n2nc(CC(=O)NNC(=O)c3ccc(N(C)C)cc3)nc2n1 | 9.73 | – | 29.1 µM [falling, single point]
37 | CCOC(=O)C1C(=O)NC(N2CCN(Cc3ccccc3)CC2)=NC1c1ccco1 (configuration not stated) | – | 2.59 µM [rising, partial curve, poor fit] | –
38 | O=C(NCCC1=CCCCC1)c1cc(COc2ccc(F)cc2Cl)on1 | -7.08 | 6.51 µM [rising, single point] | –
39 | COc1cc(S(=O)(=O)Nc2ccccc2C)ccc1NC(=O)c1ccncc1 | – | 0.82 µM [rising, single point] | 4.61 µM [rising, single point]
40 | O=C(Nc1ccc(F)cc1F)c1ccc2ncsc2c1 | 36.6 | 0.164 µM [rising, full curve, poor fit] | –
41 | Clc1ccccc1CSc1nnc([C@@H]2CCCN2)o1 | 26.2 | – | 0.13 µM [rising, full curve, poor fit]
42 | CC(=O)c1cccc(NC(=O)C2C(c3ccccc3)C2(Cl)Cl)c1 (configuration not stated) | 38.4 | – | –
43 | COc1ccc(-n2c(=O)/c(=C\c3cccs3)s/c2=C(/C#N)C(=O)NCCN2CCOCC2)cc1 | 45.3 | – | –
44 | CCOC(=O)c1nnn(-c2nonc2N)c1-c1ccccc1 | -11.1 | 6.51 µM [rising, single point] | –

Row | Structure (SMILES) | cell number change [%] | AC50 [1] | AC50 [2]
45 | CCCC(c1nnnn1C1CCCC1)N1CCN(c2ccccc2F)CC1 (configuration not stated) | 1.36 | – | –
46 | CCOc1ccc(C2NC(=O)CCC2[N+](=O)[O-])cc1 (configuration not stated) | 3.52 | – | 14.6 µM [rising, single point]
47 | CC(=O)Nc1ccc(S(=O)(=O)N[C@@H](C)C(=O)OCc2ccc(Cl)cc2)cc1 | -24.1 | – | 29.1 µM [falling, single point]
48 | S=C(NCc1ccco1)NCC1CCCO1 (configuration not stated) | -15.1 | – | 4.61 µM [falling, single point]
49 | O=C(CSCc1ccc(Br)cc1)NCc1ccccn1 | -23.3 | – | 4.11 µM [rising, single point]
50 | COc1ccc(CCNC(=O)c2cnc3ccccn3c2=O)cc1 | 15.9 | – | 1.46 µM [rising, partial curve]
51 | CCOCCOC(=O)C1=C(C)NC(=O)NC1c1cc2c(cc1Br)OCO2 (configuration not stated) | 8.2 | – | 29.1 µM [rising, single point]
52 | Nc1c(C(=O)NCC2CCCO2)sc2nc3c(c(-c4ccco4)c12)CC/C3=C\c1ccco1 (configuration not stated) | – | – | 9.2 µM [falling, partial curve]
53 | Cc1nc(SC2C=CS(=O)(=O)C2)n[nH]1 (configuration not stated) | 4.33 | – | 0.0058 µM [rising, full curve, poor fit]
54 | COc1cc(/C=N/NC(=O)c2ccncc2)ccc1OC(=O)c1cc(OC)c(OC)c(OC)c1 | 22.6 | – | 29.1 µM [rising, single point]
55 | Cc1ccc(NC(=O)Cc2n[nH]c(=O)c3ccccc23)cc1S(=O)(=O)N1CCCCCC1 | -7.93 | – | 0.0517 µM [rising, full curve, poor fit]
56 | COC(=O)c1cc2ccsc2n1Cc1cccc(F)c1 | 60.1 | 29.1 µM [rising, single point] | –
57 | CC(=O)NC1C(=O)N=C(SC(C)C(=O)Nc2cccc(Cl)c2)NC1=O (configuration not stated) | -10.2 | 0.164 µM [falling, full curve, poor fit] | –
58 | Cc1ccc2nc(SCC(=O)c3ccc4c(c3)OCO4)[nH]c2c1 | -1.93 | 0.731 µM [rising, full curve] | 1.3 µM [rising, full curve]
59 | CC(C)CC(=O)Nc1ccccc1N1CCOCC1 | -57.2 | 23.1 µM [falling, single point] | –
60 | Cc1ccc2c(c1)cc(CN(Cc1cccnc1)C(=O)NCc1ccccc1)c1nnnn12 | – | 1.84 µM [rising, partial curve] | 2.31 µM [rising, partial curve]
61 | Nc1nc(CSc2ncccn2)nc(Nc2ccccc2)n1 | 5.76 | – | –
62 | O=C(CSc1ccc2c(c1)OCCO2)Nc1ccc(Br)cn1 | 15.9 | 0.00411 µM [rising, full curve, poor fit] | –
63 | COc1ccc2oc(C(=O)N(C)CCOc3ccc(Cl)cc3)c(C)c2c1 | -9.67 | – | 0.58 µM [rising, single point]
64 | CCN(CC(=O)NCc1cccs1)S(=O)(=O)c1ccc([N+](=O)[O-])cc1 | -8.12 | – | 0.651 µM [rising, full curve, poor fit]

Single records, as listed above.
`Cc1ccc2nc(SCC(=O)c3ccc4c(c3)OCO4)[nH]c2c1` reads cell number change [%]: -1.93; AC50 [1]: 0.731 µM [rising, full curve]; AC50 [2]: 1.3 µM [rising, full curve]
`Cc1nc(SC2C=CS(=O)(=O)C2)n[nH]1` (configuration not stated) reads cell number change [%]: 4.33; AC50 [2]: 0.0058 µM [rising, full curve, poor fit]
`S=C(NCc1ccco1)NCC1CCCO1` (configuration not stated) reads cell number change [%]: -15.1; AC50 [2]: 4.61 µM [falling, single point]

From PubChem BioAssay AID2685 (National Center for Advancing Translational Sciences (NCATS), 2010)
